From paper PMC7803973, “Structural basis of malaria parasite phenylalanine tRNA-synthetase inhibition by bicyclic azetidines” (Nature Communications, 2021)
Results are given in words; binding and its absence hold for the method and conditions named. Some entries that bind do so weakly or less than the wild type.

How the values were obtained:
[1] = biological target: T1, Plasmodium vivax cytosolic phenylalanine tRNA-synthetase alpha subunit, full length (Plasmodium vivax) (UniProt A5K9S0); assay: SEC; purified PvcFRS on a Superdex 200 analytical gel filtration column; both purified
T1 sequence: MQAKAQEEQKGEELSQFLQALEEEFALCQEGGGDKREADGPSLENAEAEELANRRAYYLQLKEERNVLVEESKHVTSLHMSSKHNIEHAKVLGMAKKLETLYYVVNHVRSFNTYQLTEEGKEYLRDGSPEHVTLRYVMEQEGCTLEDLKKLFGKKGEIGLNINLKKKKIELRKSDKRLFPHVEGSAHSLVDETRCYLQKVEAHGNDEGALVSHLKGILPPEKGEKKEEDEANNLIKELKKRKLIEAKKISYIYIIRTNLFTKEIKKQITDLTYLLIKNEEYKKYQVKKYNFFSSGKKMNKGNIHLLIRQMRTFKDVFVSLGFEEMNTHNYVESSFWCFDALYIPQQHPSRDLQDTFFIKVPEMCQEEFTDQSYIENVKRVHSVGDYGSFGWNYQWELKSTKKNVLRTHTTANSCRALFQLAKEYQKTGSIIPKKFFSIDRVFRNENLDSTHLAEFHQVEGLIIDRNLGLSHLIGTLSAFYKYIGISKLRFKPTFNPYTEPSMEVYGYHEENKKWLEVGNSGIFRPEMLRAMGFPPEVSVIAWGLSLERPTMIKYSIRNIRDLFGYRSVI

[2] = biological target: T2, PvcFRS alpha subunit as in the crystal (N-terminal domain, residues 1-270, absent) (Plasmodium vivax) (UniProt A5K9S0); assay: crystal structure; PvcFRS with BRD1389 and Mg2+, space group P2(1)2(1)2, one αβ heterodimer per asymmetric unit, 3.0 Å; both purified
T2 sequence: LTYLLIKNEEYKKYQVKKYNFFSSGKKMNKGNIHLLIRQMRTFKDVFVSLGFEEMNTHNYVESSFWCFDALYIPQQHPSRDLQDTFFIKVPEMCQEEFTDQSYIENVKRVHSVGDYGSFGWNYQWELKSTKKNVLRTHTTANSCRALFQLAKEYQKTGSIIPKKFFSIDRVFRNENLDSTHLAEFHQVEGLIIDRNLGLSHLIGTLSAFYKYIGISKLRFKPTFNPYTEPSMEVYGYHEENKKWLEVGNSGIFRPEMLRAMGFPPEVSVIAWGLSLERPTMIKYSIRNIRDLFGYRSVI

- binding [1]: binds
- binding [2]: binds
B1: Plasmodium vivax cytosolic phenylalanine tRNA-synthetase beta subunit, full length (enzyme, UniProt A5K464 1-617)
chain: MPTISVHEEDLIEKLGEKIEEEKLNDICFEFGIEIDDVEYKGEKKIYKIEVPANRYDLVCVEGLCRALKSFIGKYENVSYALLTNSEEACVKEKHFMRVDESVDERRSYVVSAVLKNVKMNENVYNNIIELQEKLHHNLGKKRILLAIGIHDYDKINFPVAYKFEEKEKINFIPLNETQNVNGNNFINFYQDNINLKSYLKIISDFEKFPVIVDAGGQILSLPPIINCDYTKITYDTRNLFIECTAIDRNKAEIAVNIICSMLSEYCTPKYSIHSFFVQYDKNHKAEKGNGYLYPVFKNKTLTCHMDYVRKLSGILNLSVKDVEPLLKKMMITSKVIDSSTFTVDVPFYRSDIMHFCDIVEDIAIAYGYGNIVSEKIEIAKKNSLSACTELFRNVLAECTYTEVMTNALLSKRENYDCMLRKHRSYDDRKINLDEYNPLAPPVQIMNSKTSEYEIVRTSLIVNMLKFVSANKHRELPLRFFEIGDVSYTTYDRTDTNAVNKRYLSVIFADKFTAGLEEAHGMLETVLKEFQLFSDYKIEEKSKENVAIRSDVFYKLVPKEDPSFLNERVVDIVLCPHNLKFGIMGIIHPKVLENFSIDIPVSVIEINIETIMDVLMM
